# Tested on: Cryptococcus neoformans 0634 (ATCC90112)
# Experiment: MIC, antifungal spectrum (Table 3)
# Format: cell-based
# Experimental: The activities of several exemplary compounds of the present invention were assayed according to the CLSI standard M38-A2 titled “Reference Method for Broth Dilution Antifungal Susceptibility Testing of Filamentous Fungi”. However, the RPMI-1640 broth is substituted for a YPD medium formulated according to the following steps: […]
# 1. Dissolve 10 g of BactoYeast extract in 500 ml water
# 2. Dissolve 20 g of BactoPeptone in the above solution
# 3. Dissolve 20 g Dextrose in the above solution* *Ordinary table sugar (sucrose) substituted for dextrose routinely.
# 4. q.s. to 1000 ml with water
smiles,measurement,setting,value
"C[C@@H]1[C@H](O)[C@@H](C)/C=C/C=C/C=C/C=C/C=C/C=C/C=C/[C@H](O[C@@H]2O[C@H](C)[C@@H](O)[C@H](N)[C@@H]2O)C[C@@H]2O[C@](O)(C[C@@H](O)C[C@@H](O)[C@H](O)CC[C@@H](O)C[C@@H](O)CC(=O)O[C@H]1C)C[C@H](O)[C@H]2C(=O)O [Amphotericin, Amphotericin B]",MIC,48 hr reading,0.015 µg/mL
same,MIC,72 hr reading,0.03 µg/mL
